Hit rate of the full screen: of about 320,000 compounds, about 2,100 (0.66%) were called active. Inconclusive means that the source gave no clear call. Such entries were picked first, then a sample of the others. The call rests on the fitted dose curve; in most records, active means well fitted inhibition curve with a large enough effect in the signal ratio, with a control signal flat (not every such curve was filed as active); inconclusive means small, poorly fitted or top-dose-only effect, or effect the other way, or a change in a side signal; inactive means flat fitted curve, though single readings scatter; the % refers to the signal ratio. Potencies of inconclusive entries are doubtful fits and often do not repeat.
Test: qHTS Assay for Lipid Storage Modulators in Drosophila S3 Cells
Settings: BODIPY lipid droplet fluorescence, 18-24 h, cells fed with added oleic acid; lipid storage change, negative = inhibition: at 46.1 µM (top of the series) unless noted
Procedure, shortened: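 Drosophila S3 cells got compounds at several concentrations plus oleic acid (400 uM solution). Laser-scanning cytometry with 488 nm excitation read lipid droplets at 500-530 nm and cells at 575-640 nm. Percent activity was relative to 20 uM Triacsin C.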
For `COC(CNC(=O)c1ccc2c(c1)nc(C)n2-c1cc(C)cc(C)c1)OC`, the lipid storage change, negative = inhibition was inconclusive: -23.6%.
In the case of `Cc1nc2ccccc2c(=O)n1/N=C/c1cn(-c2ccccc2)nc1-c1cccs1`, the Potency was inconclusive: 0.116 µM [activator, single point].
With `O=C(c1ccc(NS(=O)(=O)c2ccccc2)cc1)N1CCCCCC1` the lipid storage change, negative = inhibition was inconclusive: 9.41%.
With `Cn1c(CCN2CCCCC2)nc2cc(NC(=O)NC3CCCCC3)ccc21` the lipid storage change, negative = inhibition was inconclusive: -36%.
For `O=C(COC(=O)/C=C/c1cccc(Cl)c1)NCCc1ccccc1`, the Potency was inconclusive: 4.61 µM [activator, partial curve, poor fit].
For `Cc1cc(OC(C)C(=O)NCC2CCC(C(=O)O)CC2)c2c(C)c(Cc3ccccc3)c(=O)oc2c1` (stereo not drawn), the lipid storage change, negative = inhibition was inconclusive: -35%.
For `CCCCC(=O)NC(c1cccc([N+](=O)[O-])c1)c1c(OC(C)=O)ccc2ccccc12` (stereo not drawn), the Potency was inconclusive: 29.1 µM [falling, single point].
In the case of `Cc1nc(Nc2c(Cl)cccc2Cl)sc1C(=O)Nc1ccccc1`, the Potency was inconclusive: 20.6 µM [falling, single point].
For `COc1c(F)c(F)c(C(=O)Nc2ccc(N3CCN(Cc4ccccc4)CC3)cc2)c(F)c1F`, the lipid storage change, negative = inhibition was inconclusive: 140%.
In the case of `CCc1ccccc1NC(=O)CN(C)C(=O)Cn1ncc(Cl)c(Cl)c1=O`, the lipid storage change, negative = inhibition was inconclusive: -24.5%.
For `COc1cc(NCC(=O)Nc2cccc(S(=O)(=O)N3CCCCC3)c2)cc(OC)c1OC`, the lipid storage change, negative = inhibition was “inactive”.
With `COc1ccccc1C(C)NS(=O)(=O)c1ccc(Cl)nc1` (stereo not drawn) the Potency was inconclusive: 29.1 µM [activator, single point].
In the case of `CCOC(=O)c1cc(C#N)c(SCC(=O)OC)[nH]c1=O`, the lipid storage change, negative = inhibition was inconclusive: 1.3%.
With `CCc1nc(SCC(=O)Nc2ccccc2Cl)n[nH]1` the Potency was inconclusive: 16.4 µM [falling, partial curve, poor fit].
In the case of `CCn1cnc2cc(NCc3nc4ccccc4n3Cc3ccccc3)ccc21`, the lipid storage change, negative = inhibition was inconclusive: -16.6%.
With `O=C(Nc1ccc(Cl)cc1)C1CCCN1C(=O)NCc1ccccc1` (stereo not drawn) the Potency was inconclusive: 18.4 µM [activator, single point].
In the case of `Cc1ccccc1OCC(=O)NNC(=S)NC(=O)c1ccco1`, the lipid storage change, negative = inhibition was inconclusive: 11.2%.
For `CCCCNC(=O)c1onc(CSc2ccc(Cl)cc2)c1C(=O)O`, the Potency was inconclusive: 3.66 µM [falling, single point].
In the case of `CCOP(=O)(Cc1ccc(C(C)(C)CC(C)=O)o1)OCC`, the lipid storage change, negative = inhibition was inconclusive: 19.2%.
In the case of `O=C(Cn1c(SCc2ccccc2)nc2ccccc21)N1CCOCC1`, the lipid storage change, negative = inhibition was inconclusive: -11.2%.
In the case of `CC(C)(C)NC(=O)COC(=O)c1snc(C(=O)NC2CCCCC2)c1N`, the Potency was inconclusive: 29.1 µM [falling, partial curve].
In the case of `CCOC(=O)c1c(/N=C/N(C)C)sc(C(=O)OC)c1C`, the lipid storage change, negative = inhibition was inconclusive: -11%.
With `Cc1cccc(OCC(=O)NCC(=O)N/N=C/c2ccc(O)cc2O)c1` the lipid storage change, negative = inhibition was inconclusive: -37%.
With `COc1ccc(N2CC(C(=O)Nc3ccc([N+](=O)[O-])cc3Br)CC2=O)cc1` (stereo not drawn) the lipid storage change, negative = inhibition was inconclusive: -51.7%.
In the case of `COc1c(O)cccc1-c1nnn(CCC(=O)OCC(=O)c2ccccc2)n1`, the Potency was inconclusive: 23.1 µM [falling, single point].
With `COc1ccc(-c2[nH]ncc2CN2CCC(OCc3ccccn3)CC2)c(F)c1` the lipid storage change, negative = inhibition was inconclusive: 6.11%.
In the case of `CC(C)(O)C#Cc1ccc(CN2CCCC(CO)(Cc3cccc(Cl)c3)C2)cc1` (stereo not drawn), the lipid storage change, negative = inhibition was inconclusive: -24.6%.
With `CN(CC1CCCN(CCc2ccc(Cl)cc2)C1)C(=O)CC(F)(F)F` (stereo not drawn) the lipid storage change, negative = inhibition was inconclusive: 23.7%.
In the case of `O=C(CCCc1nc(-c2ccc(Cl)cc2)no1)NC1CCCCC1`, the lipid storage change, negative = inhibition was inconclusive: -14.3%.
In the case of `O=C(N/N=C/c1ccccn1)c1ccc([N+](=O)[O-])cc1Cl`, the lipid storage change, negative = inhibition was inconclusive: -7.76%.
For `Cc1ccc(CNc2cnccn2)s1`, the lipid storage change, negative = inhibition was inconclusive: 21.6%.
In the case of `CCCCCCC1/C(=N\NC(=O)c2ccccc2)CCC1C(=O)OC` (stereo not drawn), the lipid storage change, negative = inhibition was inconclusive: 13.6%.
In the case of `Nc1ccccc1-c1nc2ccccc2[nH]c1=O`, the lipid storage change, negative = inhibition was inconclusive: -41.7%.
For `N#C/C(=C\c1ccc(OCc2ccccc2)cc1)C(=O)Nc1ccc(C(=O)O)cc1`, the Potency was active: 20.6 µM.
For `COc1cc(NC(=O)CN2C(=O)NC(c3ccccc3)(c3ccccc3)C2=O)c(C)cc1[N+](=O)[O-]`, the lipid storage change, negative = inhibition was inconclusive: 23.6%.
With `Cc1cc(C)nc(-n2nc(C)cc2NC(=O)c2cccc(S(=O)(=O)N(C)C)c2)n1` the lipid storage change, negative = inhibition was inconclusive: -14.9%.
With `COCCn1c(SCc2nc3ccccc3c(=O)[nH]2)nnc1-c1ccncc1` the lipid storage change, negative = inhibition was inconclusive: 56%.
With `CC(=O)N1CCN(CC(=O)Nc2ccc(C)c(S(=O)(=O)N(C)C)c2)CC1` the lipid storage change, negative = inhibition was inconclusive: -58.1%.
With `COc1ccccc1/C=C/C(=O)OCCCN(C)C` the lipid storage change, negative = inhibition was inconclusive: 51.9% [at 0.00295 µM].
For `COc1cc2c(=O)n(CCC(=O)NCC3CCCO3)c(=O)n(CC(=O)Nc3ccccc3C)c2cc1OC` (stereo not drawn), the lipid storage change, negative = inhibition was inconclusive: 78.9%.
With `COc1cc(O)c(C(CC(=O)N2CCN(c3ccccc3)CC2)c2ccc3c(c2)OCO3)c(OC)c1` (stereo not drawn) the lipid storage change, negative = inhibition was inconclusive: 12%.
In the case of `CCN1CCN(c2ncnc3c2cnn3-c2ccc(C)cc2C)CC1`, the lipid storage change, negative = inhibition was inconclusive: 4.95%.
With `O=C(NCc1ccccc1)Nc1cccc2ccccc12` the lipid storage change, negative = inhibition was inconclusive: 17.1%.
With `O=C(c1ccccc1-c1ccccc1)N1CCCCC1` the Potency was inconclusive: 1.16 µM [falling, single point].
For `CCCCn1c(N)nc2ccccc21`, the Potency was inconclusive: 2.06 µM [activator, partial curve].
In the case of `Cc1cc(N2CCOCC2)c2c(N)c(C)cc(C)c2n1`, the lipid storage change, negative = inhibition was inconclusive: 12.7%.
For `CC(C)NC(=O)C(Cc1ccccc1)N1C(=O)c2ccccc2C1=O` (stereo not drawn), the lipid storage change, negative = inhibition was “inactive”.
For `Cc1ccc(CNC(=O)c2ccc([N+](=O)[O-])o2)cc1`, the Potency was inconclusive: 29.1 µM [falling, single point].
With `O=C/C=C/c1coc2ccc3ccccc3c2c1=O` the lipid storage change, negative = inhibition was inconclusive: 14.9%.
With `CC1=CC(=O)C=CC1(C)C(Cl)Cl` (stereo not drawn) the lipid storage change, negative = inhibition was inconclusive: -14.7%.
With `Cc1ccc(NCc2n[nH]c(=S)n2-c2ccccc2)cc1` the lipid storage change, negative = inhibition was inconclusive: 13.2% [at 9.22 µM].
With `CCN(CC)S(=O)(=O)c1ccc(C)c(NC(=O)CN2C(=O)NC3(CCCC3)C2=O)c1` the lipid storage change, negative = inhibition was inconclusive: -40.6%.
In the case of `N=C1/C(=C/c2ccc(-c3cccc(C(=O)O)c3)o2)C(=O)N=C2SC(CC(=O)N3CCOCC3)=NN12`, the Potency was inconclusive: 0.82 µM [falling, full curve].
With `Cc1ccc(N)c(C(=O)CCCCC(=O)O)c1` the lipid storage change, negative = inhibition was inconclusive: -11.4%.
For `CC1CCN(CCCNC(=O)C2CCCN(c3ncnc4c3nc3n4CCCCC3)C2)CC1` (stereo not drawn), the Potency was inconclusive: 29.1 µM [falling, single point].
In the case of `CN(C)c1ccc(/C=C(\C#N)c2ccccc2)cc1`, the lipid storage change, negative = inhibition was inconclusive: 6.88%.
In the case of `CCn1c(-c2cccn(Cc3ccccc3)c2=O)n[nH]c1=S`, the lipid storage change, negative = inhibition was inconclusive: 18.2%.
For `CCOc1ccccc1/C=c1\sc2nc(-c3ccco3)nn2c1=O`, the Potency was inconclusive: 0.259 µM [cytotoxic, full curve].
In the case of `CC(C)CNC(=O)C1CC(=O)OC12CCCCC2` (stereo not drawn), the lipid storage change, negative = inhibition was “inactive”.
In the case of `CC(=O)Nc1ccc(S(=O)(=O)Oc2ccccc2N2CCCCC2)cc1`, the lipid storage change, negative = inhibition was inconclusive: 7.99%.
For `COc1ccc(S(=O)(=O)N2CCC(C(=O)NCc3ccccn3)CC2)cc1Cl`, the lipid storage change, negative = inhibition was inconclusive: 23.9%.
With `CS(=O)(=O)c1cccc(C(=O)N(CCc2ccccc2)Cc2cccs2)c1` the lipid storage change, negative = inhibition was inconclusive: 5.2%.
In the case of `CCCCN1C(=O)/C(=C/C=C2\SCCN2C)SC1=S`, the lipid storage change, negative = inhibition was inconclusive: -18.5%.
With `Cc1cc(-c2n[nH]c(=S)n2/N=C/C=C/c2ccccc2)n[nH]1` the lipid storage change, negative = inhibition was inconclusive: 11.9%.
For `CCOc1ccc(C(Nc2ccc(C)cc2)P2(=O)OCCC(C)O2)cc1` (stereo not drawn), the Potency was inconclusive: 6.51 µM [activator, single point].
In the case of `Cc1cc(C)c(NC(=O)CSc2nnc(CN3CCOCC3)n2C)c(C)c1`, the lipid storage change, negative = inhibition was inconclusive: -52.2%.
For `CCOc1ccc(/C=C/C(=O)OC(C)C(=O)NC2CCCCC2C)cc1OC` (stereo not drawn), the Potency was inconclusive: 6.51 µM [falling, single point].
In the case of `COc1ccc(OC)c(N2C(=O)[C@@H]3C(c4ccccc4Cl)=NO[C@@H]3C2=O)c1`, the lipid storage change, negative = inhibition was inconclusive: 0.0621%.
In the case of `CC1Cc2ccccc2N1C(=O)CNCCCN(C)C` (stereo not drawn), the Potency was active: 20.6 µM.
In the case of `CC(=O)c1cccc(N(C(=O)CNC(=O)c2ccco2)C(C(=O)NCC2CCCO2)c2ccccc2)c1` (stereo not drawn), the Potency was inconclusive: 1.16 µM [falling, single point].
With `CSc1ccc(S(=O)(=O)N2CCC(C(=O)NC3CC3)CC2)cc1` the Potency was inconclusive: 4.61 µM [falling, single point].
For `Cc1[nH]c2ccccc2c1C(=O)CN1C(=O)NC2(CCCCCC2)C1=O`, the lipid storage change, negative = inhibition was inconclusive: 5.17%.
For `COc1ccc(C(=O)Nc2ccc(S(=O)(=O)NC(C)=O)cc2)cc1[N+](=O)[O-]`, the lipid storage change, negative = inhibition was inconclusive: -75%.
With `CCC(c1nnc(SC(C)C(=O)NC2CC2)n1-c1ccc(OC)cc1)N(C)C` (stereo not drawn) the Potency was inconclusive: 7.31 µM [falling, single point].
For `CC(C)C1C(C#N)=C(N)SC(N)=C1C#N`, the Potency was inconclusive: 0.0082 µM [activator, full curve, poor fit].
In the case of `COCC(=O)Nc1ccccc1C#N`, the Potency was inconclusive: 0.164 µM [falling, full curve, poor fit].
In the case of `Cc1cc(C)c(NC(=O)CSc2ccc(-c3ccccn3)nn2)c(C)c1`, the lipid storage change, negative = inhibition was inconclusive: 12.2%.
For `Cc1ccccc1CNC(=O)CCc1ccccc1`, the lipid storage change, negative = inhibition was inconclusive: 23.6%.

Source: PubChem BioAssay AID2685 (National Center for Advancing Translational Sciences (NCATS), 2010)
On the % scale 0 is the no-effect control and ±100 the full control effect; potency means the concentration at half of the fitted maximal effect.
